According to paper PMC4225492:
These are yes or no findings as the source states them, for the method shown. For some assays here: In cells and extracts the contact can be indirect. Some binding calls cover weakened binding; strength is not graded here. Where a sequence is shown, tags or fusion partners need not be part of it. Blank lines part the entries; values can stand above or below the binder they belong to.

Experiments:
[1] = target: T1, RETINOBLASTOMA-RELATED (RBR), BiFC fusion (Arabidopsis thaliana) (UniProt Q9LKZ3); assay: split reporter; BiFC in Nicotiana benthamiana leaves; N or C terminal half of YFP fused to the C-terminus of each candidate; quantified as percentage of YFP-positive nuclei over total pavement cells in a field of view; three experiments
T1 sequence: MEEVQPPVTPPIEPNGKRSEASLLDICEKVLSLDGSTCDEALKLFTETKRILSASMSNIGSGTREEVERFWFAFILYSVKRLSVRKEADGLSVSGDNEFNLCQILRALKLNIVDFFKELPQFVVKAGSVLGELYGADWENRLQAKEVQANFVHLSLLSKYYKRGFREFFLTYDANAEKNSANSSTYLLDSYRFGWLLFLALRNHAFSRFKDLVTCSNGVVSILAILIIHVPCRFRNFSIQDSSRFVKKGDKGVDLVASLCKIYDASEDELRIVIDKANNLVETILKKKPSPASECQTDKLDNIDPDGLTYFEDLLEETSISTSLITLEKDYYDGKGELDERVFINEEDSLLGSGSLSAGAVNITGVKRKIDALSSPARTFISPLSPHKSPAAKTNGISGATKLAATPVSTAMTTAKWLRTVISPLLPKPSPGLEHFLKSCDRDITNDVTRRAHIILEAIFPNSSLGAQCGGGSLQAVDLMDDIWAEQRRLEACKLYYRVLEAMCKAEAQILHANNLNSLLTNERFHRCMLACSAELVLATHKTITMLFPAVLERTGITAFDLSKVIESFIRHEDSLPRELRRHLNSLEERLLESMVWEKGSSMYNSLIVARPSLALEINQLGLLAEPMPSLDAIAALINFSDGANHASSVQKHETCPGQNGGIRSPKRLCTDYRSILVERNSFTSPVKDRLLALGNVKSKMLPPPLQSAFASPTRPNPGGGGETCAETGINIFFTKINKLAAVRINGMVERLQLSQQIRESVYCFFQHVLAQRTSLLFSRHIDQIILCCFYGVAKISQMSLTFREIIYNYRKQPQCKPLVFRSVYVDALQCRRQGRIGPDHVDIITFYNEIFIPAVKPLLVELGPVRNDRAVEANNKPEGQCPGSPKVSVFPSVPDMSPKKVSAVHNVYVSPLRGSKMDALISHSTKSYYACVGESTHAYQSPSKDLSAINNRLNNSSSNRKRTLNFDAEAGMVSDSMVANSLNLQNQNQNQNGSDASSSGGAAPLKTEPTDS

[2] = target: T2, RETINOBLASTOMA-RELATED (RBR), yeast two-hybrid fusion (Arabidopsis thaliana) (UniProt Q9LKZ3); assay: two-hybrid; yeast strain AH109; vectors pGADT7 and pXDGATcy86; pairwise interactions tested by growth complementation on nutritional selective media
T2 sequence: T1 sequence

binding [1]: binds
B1: FAMA (wild type), BiFC fusion (protein, UniProt Q56YJ8 1-414)
chain: MDKDYSAPNFLGESSGGNDDNSSGMIDYMFNRNLQQQQKQSMPQQQQHQLSPSGFGATPFDKMNFSDVMQFADFGSKLALNQTRNQDDQETGIDPVYFLKFPVLNDKIEDHNQTQHLMPSHQTSQEGGECGGNIGNVFLEEKEDQDDDNDNNSVQLRFIGGEEEDRENKNVTKKEVKSKRKRARTSKTSEEVESQRMTHIAVERNRRKQMNEHLRVLRSLMPGSYVQRGDQASIIGGAIEFVRELEQLLQCLESQKRRRILGETGRDMTTTTTSSSSPITTVANQAQPLIITGNVTELEGGGGLREETAENKSCLADVEVKLLGFDAMIKILSRRRPGQLIKTIAALEDLHLSILHTNITTMEQTVLYSFNVKITSETRFTAEDIASSIQQIFSFIHANTNISGSSNLGNIVFT

binding [2]: binds
B2: FAMA (wild type), yeast two-hybrid fusion (protein, UniProt Q56YJ8 1-414)
chain: B1 chain
